This note sets out measurements from article PMC9170289.

The chains behind the UniProt entries cited, without tags or fusion partners.
UniProt P22147: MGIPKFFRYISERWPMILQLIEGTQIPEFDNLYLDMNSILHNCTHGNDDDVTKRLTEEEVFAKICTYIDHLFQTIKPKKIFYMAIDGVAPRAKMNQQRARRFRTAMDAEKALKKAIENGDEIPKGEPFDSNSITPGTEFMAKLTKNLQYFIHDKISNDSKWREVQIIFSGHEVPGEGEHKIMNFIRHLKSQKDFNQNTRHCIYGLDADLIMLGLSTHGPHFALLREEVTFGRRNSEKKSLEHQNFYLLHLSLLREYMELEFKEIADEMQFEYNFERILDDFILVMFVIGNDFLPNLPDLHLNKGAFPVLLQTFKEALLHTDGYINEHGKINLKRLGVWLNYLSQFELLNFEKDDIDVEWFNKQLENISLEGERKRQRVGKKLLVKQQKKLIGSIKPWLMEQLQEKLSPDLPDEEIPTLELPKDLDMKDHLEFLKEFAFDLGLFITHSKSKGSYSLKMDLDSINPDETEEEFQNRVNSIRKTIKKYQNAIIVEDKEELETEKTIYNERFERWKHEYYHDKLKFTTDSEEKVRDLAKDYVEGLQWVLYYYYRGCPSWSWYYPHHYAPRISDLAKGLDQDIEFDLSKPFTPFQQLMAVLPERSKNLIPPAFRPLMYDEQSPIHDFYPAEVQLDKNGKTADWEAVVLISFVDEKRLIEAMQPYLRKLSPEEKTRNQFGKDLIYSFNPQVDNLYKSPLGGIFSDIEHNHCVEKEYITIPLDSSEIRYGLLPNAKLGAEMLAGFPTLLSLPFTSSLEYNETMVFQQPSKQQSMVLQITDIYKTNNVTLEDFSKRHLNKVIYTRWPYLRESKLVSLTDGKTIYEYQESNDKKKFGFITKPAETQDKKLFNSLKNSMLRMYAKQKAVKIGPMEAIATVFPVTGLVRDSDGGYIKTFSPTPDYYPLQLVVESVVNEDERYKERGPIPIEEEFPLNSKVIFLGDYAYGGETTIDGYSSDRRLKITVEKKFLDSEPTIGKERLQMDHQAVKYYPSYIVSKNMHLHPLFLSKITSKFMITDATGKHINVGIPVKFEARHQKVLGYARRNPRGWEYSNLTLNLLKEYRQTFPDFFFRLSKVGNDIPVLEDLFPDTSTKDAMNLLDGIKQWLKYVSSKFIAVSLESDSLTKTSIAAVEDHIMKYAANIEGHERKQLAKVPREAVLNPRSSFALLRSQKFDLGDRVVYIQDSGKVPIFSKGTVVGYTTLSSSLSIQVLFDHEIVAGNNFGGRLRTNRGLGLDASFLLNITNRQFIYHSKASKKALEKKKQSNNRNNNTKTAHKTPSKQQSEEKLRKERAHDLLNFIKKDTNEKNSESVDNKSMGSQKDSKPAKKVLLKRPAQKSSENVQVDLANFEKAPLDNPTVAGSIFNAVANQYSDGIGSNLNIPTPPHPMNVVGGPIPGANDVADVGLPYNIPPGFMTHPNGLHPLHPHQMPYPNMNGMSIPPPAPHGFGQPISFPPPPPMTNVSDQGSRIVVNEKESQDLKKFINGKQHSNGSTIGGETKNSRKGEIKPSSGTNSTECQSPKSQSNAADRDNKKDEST

Experiment in all cases: two-hybrid; GAL4(DB) fusion and GAL4(AD) fusion cotransformed into the wild-type tester strain GGY1::171; X-Gal colony colour on SSX plates, 30°C; pairs said to be unaffected were also tested in upf1Δ, pat1Δ, scd6Δ, edc3Δ or dcp2-N245 derivatives
Assay [1] has as its target T1, Dcp2 internal fragment aa 316–575 (minimal Xrn1-binding region) (S. cerevisiae) (UniProt P53550).
T1 sequence: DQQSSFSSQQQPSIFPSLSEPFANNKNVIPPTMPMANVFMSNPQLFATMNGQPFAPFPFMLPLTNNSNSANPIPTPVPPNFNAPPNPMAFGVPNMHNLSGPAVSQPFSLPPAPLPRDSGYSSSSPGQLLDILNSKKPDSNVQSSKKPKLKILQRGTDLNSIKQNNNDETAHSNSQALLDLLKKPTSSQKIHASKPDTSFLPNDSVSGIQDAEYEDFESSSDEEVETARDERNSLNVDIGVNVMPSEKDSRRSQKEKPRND

For assay [2], the target named is T2, Dcp2-ND244 (726-amino acid C-terminal fragment) (S. cerevisiae) (UniProt P53550).
T2 sequence: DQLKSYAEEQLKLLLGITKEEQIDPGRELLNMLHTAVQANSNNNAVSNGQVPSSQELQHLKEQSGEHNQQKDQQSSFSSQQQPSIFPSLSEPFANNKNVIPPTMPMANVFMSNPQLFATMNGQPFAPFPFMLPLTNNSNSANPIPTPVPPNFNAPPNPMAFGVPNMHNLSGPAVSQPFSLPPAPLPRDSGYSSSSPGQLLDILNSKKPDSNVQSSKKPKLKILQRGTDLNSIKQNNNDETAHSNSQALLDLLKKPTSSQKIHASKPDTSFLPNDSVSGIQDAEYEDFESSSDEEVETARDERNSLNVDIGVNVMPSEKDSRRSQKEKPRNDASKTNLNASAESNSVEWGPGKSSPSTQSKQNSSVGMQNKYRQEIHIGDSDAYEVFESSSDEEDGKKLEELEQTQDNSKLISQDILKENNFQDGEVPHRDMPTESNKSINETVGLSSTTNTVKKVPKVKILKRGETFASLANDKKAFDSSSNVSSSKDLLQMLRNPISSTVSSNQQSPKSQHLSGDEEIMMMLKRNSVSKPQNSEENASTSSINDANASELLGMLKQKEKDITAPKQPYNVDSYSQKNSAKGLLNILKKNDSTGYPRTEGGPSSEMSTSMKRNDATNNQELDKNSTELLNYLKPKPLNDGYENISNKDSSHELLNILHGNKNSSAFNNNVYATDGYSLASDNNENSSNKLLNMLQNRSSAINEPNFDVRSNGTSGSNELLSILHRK

The target in assay [3] is T3, Dcp2 fragment ND415 (S. cerevisiae) (UniProt P53550).
T3 sequence: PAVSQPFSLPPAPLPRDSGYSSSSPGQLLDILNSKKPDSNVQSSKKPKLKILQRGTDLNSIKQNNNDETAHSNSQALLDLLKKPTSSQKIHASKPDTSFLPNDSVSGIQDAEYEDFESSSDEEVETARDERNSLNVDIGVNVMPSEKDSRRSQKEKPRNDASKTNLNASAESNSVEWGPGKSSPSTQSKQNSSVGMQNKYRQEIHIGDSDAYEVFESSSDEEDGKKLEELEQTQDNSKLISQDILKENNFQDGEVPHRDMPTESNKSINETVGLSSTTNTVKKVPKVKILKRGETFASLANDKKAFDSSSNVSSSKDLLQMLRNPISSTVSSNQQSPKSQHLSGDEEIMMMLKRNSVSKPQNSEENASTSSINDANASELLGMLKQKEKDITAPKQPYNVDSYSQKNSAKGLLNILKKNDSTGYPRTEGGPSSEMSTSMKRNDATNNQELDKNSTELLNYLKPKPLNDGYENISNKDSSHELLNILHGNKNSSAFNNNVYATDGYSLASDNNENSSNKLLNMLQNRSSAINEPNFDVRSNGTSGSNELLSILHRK

Assay [4] has as its target T4, Dcp2 fragment ND315 (S. cerevisiae) (UniProt P53550).
T4 sequence: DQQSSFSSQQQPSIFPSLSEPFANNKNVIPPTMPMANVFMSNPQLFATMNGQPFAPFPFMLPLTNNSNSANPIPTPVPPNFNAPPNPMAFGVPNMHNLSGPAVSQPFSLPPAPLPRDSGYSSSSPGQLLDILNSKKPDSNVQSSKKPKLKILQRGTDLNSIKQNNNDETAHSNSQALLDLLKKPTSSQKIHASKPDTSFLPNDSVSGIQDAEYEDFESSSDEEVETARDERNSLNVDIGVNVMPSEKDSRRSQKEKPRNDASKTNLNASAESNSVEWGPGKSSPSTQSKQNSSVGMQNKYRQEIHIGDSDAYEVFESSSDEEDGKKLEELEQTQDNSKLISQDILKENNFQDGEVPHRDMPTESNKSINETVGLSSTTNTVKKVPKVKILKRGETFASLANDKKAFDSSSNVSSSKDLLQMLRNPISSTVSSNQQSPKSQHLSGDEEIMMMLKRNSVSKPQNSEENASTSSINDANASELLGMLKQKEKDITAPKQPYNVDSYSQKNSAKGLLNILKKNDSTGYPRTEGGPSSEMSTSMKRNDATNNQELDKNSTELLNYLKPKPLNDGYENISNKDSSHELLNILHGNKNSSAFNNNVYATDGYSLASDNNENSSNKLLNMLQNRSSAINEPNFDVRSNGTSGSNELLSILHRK

Results are given in words; binding and its absence hold for the method and conditions named. Some entries that bind do so weakly or less than the wild type.

In the case of Xrn1 (from UniProt P22147 1-1528), the binding entry in assay [1] is “binds”; in assay [2], “binds weakly”.

B1: Scd6 (protein, UniProt P45978 1-349)
chain: MSQYIGKTISLISVTDNRYVGLLEDIDSEKGTVTLKEVRCFGTEGRKNWGPEEIYPNPTVYNSVKFNGSEVKDLSILDANINDIQPVVPQMMPPASQFPPQQAQSPPQAQAQAHVQTNPQVPKPESNVPAAVAGYGVYTPTSTETATASMNDKSTPQDTNVNSQSRERGKNGENEPKYQRNKNRSSNRPPQSNRNFKVDIPNEDFDFQSNNAKFTKGDSTDVEKEKELESAVHKQDESDEQFYNKKSSFFDTISTSTETNTNMRWQEEKMLNVDTFGQASARPRFHSRGLGRGRGNYRGNRGNRGRGGQRGNYQNRNNYQNDSGAYQNQNDSYSRPANQFSQPPSNVEF
For B1, the binding entry in assay [3] is listed as “binds weakly”; in assay [4], “binds”.
